Laboratory results reported in publication doi:10.1101/353086.
Like-named read-outs stand apart in the source and are kept apart here. Results are given in words; binding and its absence hold for the method and conditions named. In cells and extracts the contact can be indirect. Some entries that bind do so weakly or less than the wild type. For part of these data: Where a sequence is shown, tags or fusion partners need not be part of it.

The chains behind the UniProt entries cited, without tags or fusion partners.
UniProt P61026: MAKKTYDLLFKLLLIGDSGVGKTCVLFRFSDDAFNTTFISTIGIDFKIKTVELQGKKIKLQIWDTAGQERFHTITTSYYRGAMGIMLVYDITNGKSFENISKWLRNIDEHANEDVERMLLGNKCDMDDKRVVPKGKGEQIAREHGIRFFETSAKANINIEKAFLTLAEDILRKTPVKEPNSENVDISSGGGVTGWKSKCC
UniProt Q00610: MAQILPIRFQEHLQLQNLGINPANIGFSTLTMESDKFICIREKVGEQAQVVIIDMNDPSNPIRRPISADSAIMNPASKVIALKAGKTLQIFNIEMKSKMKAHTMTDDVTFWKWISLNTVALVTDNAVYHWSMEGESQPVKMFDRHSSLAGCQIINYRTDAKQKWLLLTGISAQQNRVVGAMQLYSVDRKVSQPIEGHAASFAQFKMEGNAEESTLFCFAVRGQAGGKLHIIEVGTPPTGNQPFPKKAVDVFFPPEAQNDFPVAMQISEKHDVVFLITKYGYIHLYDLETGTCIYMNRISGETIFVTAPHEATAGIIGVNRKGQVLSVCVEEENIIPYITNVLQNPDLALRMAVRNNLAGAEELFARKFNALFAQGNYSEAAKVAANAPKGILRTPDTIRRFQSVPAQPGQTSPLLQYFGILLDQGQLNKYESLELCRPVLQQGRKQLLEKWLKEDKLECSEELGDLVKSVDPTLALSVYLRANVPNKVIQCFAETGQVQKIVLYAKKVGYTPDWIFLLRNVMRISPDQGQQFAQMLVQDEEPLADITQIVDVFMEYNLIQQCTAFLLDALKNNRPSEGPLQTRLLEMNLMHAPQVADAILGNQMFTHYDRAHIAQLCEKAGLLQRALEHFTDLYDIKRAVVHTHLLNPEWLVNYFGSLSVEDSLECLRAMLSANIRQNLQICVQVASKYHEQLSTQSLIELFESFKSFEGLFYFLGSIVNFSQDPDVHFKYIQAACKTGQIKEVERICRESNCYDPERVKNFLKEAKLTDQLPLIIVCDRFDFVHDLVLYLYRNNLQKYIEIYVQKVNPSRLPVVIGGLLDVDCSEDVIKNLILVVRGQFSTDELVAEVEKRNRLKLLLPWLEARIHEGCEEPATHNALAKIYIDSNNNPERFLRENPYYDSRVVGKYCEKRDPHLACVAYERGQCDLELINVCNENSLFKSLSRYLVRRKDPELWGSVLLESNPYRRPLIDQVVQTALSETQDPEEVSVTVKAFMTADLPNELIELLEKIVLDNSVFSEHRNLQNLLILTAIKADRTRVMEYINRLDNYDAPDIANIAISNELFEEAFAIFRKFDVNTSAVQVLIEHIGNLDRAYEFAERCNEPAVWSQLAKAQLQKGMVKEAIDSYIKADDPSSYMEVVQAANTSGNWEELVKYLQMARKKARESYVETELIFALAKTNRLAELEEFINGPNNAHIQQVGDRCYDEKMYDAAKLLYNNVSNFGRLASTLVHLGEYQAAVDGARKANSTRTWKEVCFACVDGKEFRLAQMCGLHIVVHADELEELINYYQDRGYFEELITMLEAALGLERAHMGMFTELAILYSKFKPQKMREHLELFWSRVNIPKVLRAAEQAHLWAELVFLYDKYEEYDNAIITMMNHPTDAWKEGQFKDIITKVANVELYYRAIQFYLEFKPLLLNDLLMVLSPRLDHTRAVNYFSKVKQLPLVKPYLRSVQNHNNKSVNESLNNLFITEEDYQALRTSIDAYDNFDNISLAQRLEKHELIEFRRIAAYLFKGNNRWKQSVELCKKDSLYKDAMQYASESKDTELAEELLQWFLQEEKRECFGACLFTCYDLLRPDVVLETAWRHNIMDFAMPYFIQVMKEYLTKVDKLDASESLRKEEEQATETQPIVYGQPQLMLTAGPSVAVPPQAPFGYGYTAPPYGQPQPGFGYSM

Experiments:
Test in all cases: co-IP
[1] = molecular target: GFP-GGA2 (Golgi-localized gamma ear-containing Arf-binding protein 2) (human) (UniProt Q9UJY4)
[2] = molecular target: GFP-GGA2 (Golgi-localized gamma ear-containing Arf-binding protein 2) (human) (UniProt Q9UJY4); remark: listed apart in the source
[3] = molecular target: T1, GFP-GGA2 (Golgi-localized gamma ear-containing Arf-binding protein 2) (human), Q9UJY4; conditions: remark: other sources report otherwise
T1 chain: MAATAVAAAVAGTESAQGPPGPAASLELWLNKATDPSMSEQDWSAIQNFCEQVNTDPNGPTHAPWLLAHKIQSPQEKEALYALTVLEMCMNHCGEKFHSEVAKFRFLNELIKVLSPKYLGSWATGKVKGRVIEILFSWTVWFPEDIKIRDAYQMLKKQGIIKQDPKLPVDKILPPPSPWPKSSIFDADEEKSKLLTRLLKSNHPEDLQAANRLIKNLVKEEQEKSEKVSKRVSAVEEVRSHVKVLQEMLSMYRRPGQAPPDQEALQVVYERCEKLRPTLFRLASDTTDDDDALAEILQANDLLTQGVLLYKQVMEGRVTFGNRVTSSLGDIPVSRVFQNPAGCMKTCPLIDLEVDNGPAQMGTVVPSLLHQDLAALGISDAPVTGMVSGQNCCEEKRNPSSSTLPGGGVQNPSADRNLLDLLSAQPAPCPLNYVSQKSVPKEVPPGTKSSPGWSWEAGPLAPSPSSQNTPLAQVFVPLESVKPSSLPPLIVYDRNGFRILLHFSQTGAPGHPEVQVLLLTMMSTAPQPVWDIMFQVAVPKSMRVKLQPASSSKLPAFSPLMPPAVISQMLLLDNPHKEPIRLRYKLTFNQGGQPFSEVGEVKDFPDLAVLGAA

[4] = molecular target: T1, GFP-GGA2 (Golgi-localized gamma …); conditions: remark: other sources report otherwise

## RAB10 (endogenous) (from UniProt P61026 1-200)
[1]
  binding: binds

## clathrin (endogenous) (from UniProt Q00610 1-1675)
[1]
  binding: binds
[2]
  binding: binds

B1: RAB13 (endogenous) (protein, UniProt P51153 1-203)
chain: MAKAYDHLFKLLLIGDSGVGKTCLIIRFAEDNFNNTYISTIGIDFKIRTVDIEGKKIKLQVWDTAGQERFKTITTAYYRGAMGIILVYDITDEKSFENIQNWMKSIKENASAGVERLLLGNKCDMEAKRKVQKEQADKLAREHGIRFFETSAKSSMNVDEAFSSLARDILLKSGGRRSGNGNKPPSTDLKTCDKKNTNKCSLG
[1]
  binding: binds

B2: GGA3 (endogenous), Q9NZ52 1-723 (protein)
chain: MAEAEGESLESWLNKATNPSNRQEDWEYIIGFCDQINKELEGPQIAVRLLAHKIQSPQEWEALQALTVLEACMKNCGRRFHNEVGKFRFLNELIKVVSPKYLGDRVSEKVKTKVIELLYSWTMALPEEAKIKDAYHMLKRQGIVQSDPPIPVDRTLIPSPPPRPKNPVFDDEEKSKLLAKLLKSKNPDDLQEANKLIKSMVKEDEARIQKVTKRLHTLEEVNNNVRLLSEMLLHYSQEDSSDGDRELMKELFDQCENKRRTLFKLASETEDNDNSLGDILQASDNLSRVINSYKTIIEGQVINGEVATLTLPDSEGNSQCSNQGTLIDLAELDTTNSLSSVLAPAPTPPSSGIPILPPPPQASGPPRSRSSSQAEATLGPSSTSNALSWLDEELLCLGLADPAPNVPPKESAGNSQWHLLQREQSDLDFFSPRPGTAACGASDAPLLQPSAPSSSSSQAPLPPPFPAPVVPASVPAPSAGSSLFSTGVAPALAPKVEPAVPGHHGLALGNSALHHLDALDQLLEEAKVTSGLVKPTTSPLIPTTTPARPLLPFSTGPGSPLFQPLSFQSQGSPPKGPELSLASIHVPLESIKPSSALPVTAYDKNGFRILFHFAKECPPGRPDVLVVVVSMLNTAPLPVKSIVLQAAVPKSMKVKLQPPSGTELSPFSPIQPPAAITQVMLLANPLKEKVRLRYKLTFALGEQLSTEVGEVDQFPPVEQWGNL
[3]
  binding: binds
[4]
  binding: binds
